Assay results as given in PubChem BioAssay AID186 (DTP/NCI, 2004).
The mice bore no tumour; each value counts animals alive of those treated. Survivors were counted at the toxicity check, usually on the fifth day, unless a day is given; later deaths do not show. Schedules are NCI's codes, read here as Q, the interval in days (D) or hours (H), X, the number of doses. Counts like (3×) stand for listed records that agree. Some entries were tested several times; the values are given in rising order.

System: B6D2F1 mice, nontumored toxicity test, survival
Test: NCI In Vivo Anticancer Drug Screen. Data for tumor model Nontumored Animals (Toxicity Test) in B6D2F1 (BDF1) mice

`NC(C/[N+]([O-])=N/O)C(=O)O` (stereo not given) was tested, and the survivor count (dose: 8.0 mg/kg/injection, schedule: Q01DX009 (ip), vehicle: saline) was 8 of 8, the survivor count (dose: 8.0 mg/kg/injection, schedule: Q01DX009 (oral), vehicle: saline) was 8 of 8 and the survivor count (dose: 8.0 mg/kg/injection, schedule: Q03HX008 (ip), vehicle: saline) was 8 of 8. For the same compound, the survivor count (dose: 8.0 mg/kg/injection, schedule: Q03HX016 (ip), vehicle: saline) was 8 of 8, the survivor count (dose: 8.0 mg/kg/injection, schedule: Q03HX024 (ip), vehicle: saline) was 8 of 8 and the survivor count (dose: 16.0 mg/kg/injection, schedule: Q01DX009 (ip), vehicle: saline) was 8 of 8. The survivor count (dose: 16.0 mg/kg/injection, schedule: Q01DX009 (oral), vehicle: saline) was 8 of 8, the survivor count (dose: 16.0 mg/kg/injection, schedule: Q01DX009 (sc), vehicle: saline) was 8 of 8 and the survivor count (dose: 16.0 mg/kg/injection, schedule: Q03HX008 (ip), vehicle: saline) was 7 of 8. For the same compound, the survivor count (dose: 16.0 mg/kg/injection, schedule: Q03HX016 (ip), vehicle: saline) was 8 of 8, the survivor count (dose: 16.0 mg/kg/injection, schedule: Q03HX024 (ip), vehicle: saline) was 8 of 8 and the survivor count (dose: 32.0 mg/kg/injection, schedule: Q01DX001 (ip), vehicle: saline) was 8 of 8. For the same compound, the survivor count (dose: 32.0 mg/kg/injection, schedule: Q01DX009 (ip), vehicle: saline) was 8 of 8, the survivor count (dose: 32.0 mg/kg/injection, schedule: Q01DX009 (oral), vehicle: saline) was 8 of 8 and the survivor count (dose: 32.0 mg/kg/injection, schedule: Q01DX009 (sc), vehicle: saline) was 8 of 8. For the same compound, the survivor count (dose: 32.0 mg/kg/injection, schedule: Q03HX008 (ip), vehicle: saline) was 8 of 8, the survivor count (dose: 32.0 mg/kg/injection, schedule: Q03HX016 (ip), vehicle: saline) was 8 of 8 and the survivor count (dose: 32.0 mg/kg/injection, schedule: Q03HX024 (ip), vehicle: saline) was 8 of 8. For the same compound, the survivor count (dose: 32.0 mg/kg/injection, schedule: Q04DX003 (ip), vehicle: saline) was 8 of 8, the survivor count (dose: 32.0 mg/kg/injection, schedule: Q08DX002 (ip), vehicle: saline) was 8 of 8 and the survivor count (dose: 64.0 mg/kg/injection, schedule: Q01DX001 (ip), vehicle: saline) was 8 of 8. For the same compound, the survivor count (dose: 64.0 mg/kg/injection, schedule: Q01DX001 (oral), vehicle: saline) was 8 of 8, the survivor count (dose: 64.0 mg/kg/injection, schedule: Q01DX001 (sc), vehicle: saline) was 8 of 8 and the survivor count (dose: 64.0 mg/kg/injection, schedule: Q01DX009 (ip), vehicle: saline) was 8 of 8. The survivor count (dose: 64.0 mg/kg/injection, schedule: Q01DX009 (oral), vehicle: saline) was 7 of 8 and 8 of 8, the survivor count (dose: 64.0 mg/kg/injection, schedule: Q01DX009 (sc), vehicle: saline) was 8 of 8 and the survivor count (dose: 64.0 mg/kg/injection, schedule: Q03HX008 (ip), vehicle: saline) was 8 of 8. The survivor count (dose: 64.0 mg/kg/injection, schedule: Q03HX016 (ip), vehicle: saline) was 8 of 8, the survivor count (dose: 64.0 mg/kg/injection, schedule: Q03HX024 (ip), vehicle: saline) was 8 of 8 and the survivor count (dose: 64.0 mg/kg/injection, schedule: Q04DX003 (ip), vehicle: saline) was 8 of 8. The survivor count (dose: 64.0 mg/kg/injection, schedule: Q04DX003 (oral), vehicle: saline) was 8 of 8, the survivor count (dose: 64.0 mg/kg/injection, schedule: Q08DX002 (ip), vehicle: saline) was 8 of 8 and the survivor count (dose: 128.0 mg/kg/injection, schedule: Q01DX001 (ip), vehicle: saline) was 8 of 8. For the same compound, the survivor count (dose: 128.0 mg/kg/injection, schedule: Q01DX001 (oral), vehicle: saline) was 8 of 8, the survivor count (dose: 128.0 mg/kg/injection, schedule: Q01DX001 (sc), vehicle: saline) was 8 of 8 and the survivor count (dose: 128.0 mg/kg/injection, schedule: Q01DX009 (ip), vehicle: saline) was 8 of 8. The survivor count (dose: 128.0 mg/kg/injection, schedule: Q01DX009 (oral), vehicle: saline) was 8 of 8, the survivor count (dose: 128.0 mg/kg/injection, schedule: Q01DX009 (sc), vehicle: saline) was 8 of 8 and the survivor count (dose: 128.0 mg/kg/injection, schedule: Q03HX008 (ip), vehicle: saline) was 8 of 8. For the same compound, the survivor count (dose: 128.0 mg/kg/injection, schedule: Q03HX016 (ip), vehicle: saline) was 8 of 8, the survivor count (dose: 128.0 mg/kg/injection, schedule: Q03HX024 (ip), vehicle: saline) was 8 of 8 and the survivor count (dose: 128.0 mg/kg/injection, schedule: Q04DX003 (ip), vehicle: saline) was 8 of 8. For the same compound, the survivor count (dose: 128.0 mg/kg/injection, schedule: Q04DX003 (oral), vehicle: saline) was 8 of 8, the survivor count (dose: 128.0 mg/kg/injection, schedule: Q04DX003 (sc), vehicle: saline) was 8 of 8 and the survivor count (dose: 128.0 mg/kg/injection, schedule: Q08DX002 (ip), vehicle: saline) was 8 of 8. The survivor count (dose: 256.0 mg/kg/injection, schedule: Q01DX001 (ip), vehicle: saline) was 8 of 8, the survivor count (dose: 256.0 mg/kg/injection, schedule: Q01DX001 (oral), vehicle: saline) was 8 of 8 and the survivor count (dose: 256.0 mg/kg/injection, schedule: Q01DX001 (sc), vehicle: saline) was 8 of 8. The survivor count (dose: 256.0 mg/kg/injection, schedule: Q01DX009 (ip), vehicle: saline) was 3 of 8, the survivor count (dose: 256.0 mg/kg/injection, schedule: Q01DX009 (oral), vehicle: saline) was 2 of 8 and the survivor count (dose: 256.0 mg/kg/injection, schedule: Q01DX009 (sc), vehicle: saline) was 5 of 8. For the same compound, the survivor count (dose: 256.0 mg/kg/injection, schedule: Q03HX008 (ip), vehicle: saline) was 8 of 8, the survivor count (dose: 256.0 mg/kg/injection, schedule: Q03HX016 (ip), vehicle: saline) was 8 of 8 and the survivor count (dose: 256.0 mg/kg/injection, schedule: Q03HX024 (ip), vehicle: saline) was 8 of 8. For the same compound, the survivor count (dose: 256.0 mg/kg/injection, schedule: Q04DX003 (ip), vehicle: saline) was 7 of 8 and 8 of 8, the survivor count (dose: 256.0 mg/kg/injection, schedule: Q04DX003 (oral), vehicle: saline) was 8 of 8 and the survivor count (dose: 256.0 mg/kg/injection, schedule: Q04DX003 (sc), vehicle: saline) was 8 of 8. For the same compound, the survivor count (dose: 256.0 mg/kg/injection, schedule: Q08DX002 (ip), vehicle: saline) was 8 of 8, the survivor count (dose: 512.0 mg/kg/injection, schedule: Q01DX001 (ip), vehicle: saline) was 8 of 8 and the survivor count (dose: 512.0 mg/kg/injection, schedule: Q01DX001 (oral), vehicle: saline) was 8 of 8. The survivor count (dose: 512.0 mg/kg/injection, schedule: Q01DX001 (sc), vehicle: saline) was 8 of 8, the survivor count (dose: 512.0 mg/kg/injection, schedule: Q01DX009 (ip), vehicle: saline) was 5 of 8 and the survivor count (dose: 512.0 mg/kg/injection, schedule: Q01DX009 (oral), vehicle: saline) was 0 of 8. For the same compound, the survivor count (dose: 512.0 mg/kg/injection, schedule: Q01DX009 (sc), vehicle: saline) was 4 of 8, the survivor count (dose: 512.0 mg/kg/injection, schedule: Q04DX003 (ip), vehicle: saline) was 8 of 8 and the survivor count (dose: 512.0 mg/kg/injection, schedule: Q04DX003 (oral), vehicle: saline) was 8 of 8. The survivor count (dose: 512.0 mg/kg/injection, schedule: Q04DX003 (sc), vehicle: saline) was 8 of 8, the survivor count (dose: 512.0 mg/kg/injection, schedule: Q08DX002 (ip), vehicle: saline) was 8 of 8 and the survivor count (dose: 1024.0 mg/kg/injection, schedule: Q01DX001 (ip), vehicle: saline) was 8 of 8. For the same compound, the survivor count (dose: 1024.0 mg/kg/injection, schedule: Q01DX001 (oral), vehicle: saline) was 8 of 8, the survivor count (dose: 1024.0 mg/kg/injection, schedule: Q01DX001 (sc), vehicle: saline) was 7 of 8 and the survivor count (dose: 1024.0 mg/kg/injection, schedule: Q01DX009 (ip), vehicle: saline) was 5 of 8. For the same compound, the survivor count (dose: 1024.0 mg/kg/injection, schedule: Q01DX009 (oral), vehicle: saline) was 5 of 8, the survivor count (dose: 1024.0 mg/kg/injection, schedule: Q01DX009 (sc), vehicle: saline) was 4 of 8 and the survivor count (dose: 1024.0 mg/kg/injection, schedule: Q04DX003 (ip), vehicle: saline) was 7 of 8. For the same compound, the survivor count (dose: 1024.0 mg/kg/injection, schedule: Q04DX003 (sc), vehicle: saline) was 8 of 8 and the survivor count (dose: 1024.0 mg/kg/injection, schedule: Q08DX002 (ip), vehicle: saline) was 8 of 8.

`N[C@@H](Cc1ccc(N(CCCl)CCCl)cc1)C(=O)O` was tested, and the survivor count (dose: 0.7 mg/kg/injection, schedule: Q01DX009 (ip), vehicle: saline) was 5 of 5, the survivor count (dose: 1.0 mg/kg/injection, schedule: Q04DX003 (ip), vehicle: water) was 4 of 4 and the survivor count (dose: 1.2 mg/kg/injection, schedule: Q01DX009 (ip), vehicle: saline) was 5 of 5. For the same compound, the survivor count (dose: 2.0 mg/kg/injection, schedule: Q01DX009 (ip), vehicle: saline) was 5 of 5, the survivor count (dose: 2.0 mg/kg/injection, schedule: Q04DX003 (ip), vehicle: water) was 4 of 4 and the survivor count (dose: 3.3 mg/kg/injection, schedule: Q01DX009 (ip), vehicle: saline) was 5 of 5. The survivor count (dose: 4.0 mg/kg/injection, schedule: Q04DX003 (ip), vehicle: water) was 4 of 4, the survivor count (dose: 6.6 mg/kg/injection, schedule: Q01DX001 (ip), vehicle: Klucel (hydroxypropylcellulose) (HPC)) was 10 of 10 and the survivor count (dose: 8.0 mg/kg/injection, schedule: Q04DX003 (ip), vehicle: water) was 4 of 4. The survivor count (dose: 10.0 mg/kg/injection, schedule: Q01DX001 (ip), vehicle: Klucel (hydroxypropylcellulose) (HPC)) was 10 of 10, the survivor count (dose: 10.0 mg/kg/injection, schedule: Q01DX001 (ip), vehicle: saline) was 10 of 10 (2×) and the survivor count (dose: 12.5 mg/kg/injection, schedule: Q01DX001 (ip), vehicle: saline) was 10 of 10 (2×). The survivor count (dose: 15.0 mg/kg/injection, schedule: Q01DX001 (ip), vehicle: Klucel (hydroxypropylcellulose) (HPC)) was 10 of 10, the survivor count (dose: 15.0 mg/kg/injection, schedule: Q01DX001 (ip), vehicle: saline) was 10 of 10 (2×) and the survivor count (dose: 18.0 mg/kg/injection, schedule: Q01DX001 (ip), vehicle: Klucel (hydroxypropylcellulose) (HPC)) was 10 of 10. The survivor count (dose: 20.0 mg/kg/injection, schedule: Q01DX001 (ip), vehicle: saline) was 10 of 10, the survivor count (dose: 22.5 mg/kg/injection, schedule: Q01DX001 (ip), vehicle: Klucel (hydroxypropylcellulose) (HPC)) was 6 of 8 and 10 of 10 and the survivor count (dose: 25.5 mg/kg/injection, schedule: Q01DX001 (ip), vehicle: Klucel (hydroxypropylcellulose) (HPC)) was 6 of 8 and 9 of 9.
